Results as given in paper PMC9411099.
Results are given in words; binding and its absence hold for the method and conditions named. Binding seen in cells or lysates may run through a third protein. Some binding calls cover weakened binding; strength is not graded here.

Chains of the proteins cited; added tags and fusions are not shown.
UniProt Q9JKF1: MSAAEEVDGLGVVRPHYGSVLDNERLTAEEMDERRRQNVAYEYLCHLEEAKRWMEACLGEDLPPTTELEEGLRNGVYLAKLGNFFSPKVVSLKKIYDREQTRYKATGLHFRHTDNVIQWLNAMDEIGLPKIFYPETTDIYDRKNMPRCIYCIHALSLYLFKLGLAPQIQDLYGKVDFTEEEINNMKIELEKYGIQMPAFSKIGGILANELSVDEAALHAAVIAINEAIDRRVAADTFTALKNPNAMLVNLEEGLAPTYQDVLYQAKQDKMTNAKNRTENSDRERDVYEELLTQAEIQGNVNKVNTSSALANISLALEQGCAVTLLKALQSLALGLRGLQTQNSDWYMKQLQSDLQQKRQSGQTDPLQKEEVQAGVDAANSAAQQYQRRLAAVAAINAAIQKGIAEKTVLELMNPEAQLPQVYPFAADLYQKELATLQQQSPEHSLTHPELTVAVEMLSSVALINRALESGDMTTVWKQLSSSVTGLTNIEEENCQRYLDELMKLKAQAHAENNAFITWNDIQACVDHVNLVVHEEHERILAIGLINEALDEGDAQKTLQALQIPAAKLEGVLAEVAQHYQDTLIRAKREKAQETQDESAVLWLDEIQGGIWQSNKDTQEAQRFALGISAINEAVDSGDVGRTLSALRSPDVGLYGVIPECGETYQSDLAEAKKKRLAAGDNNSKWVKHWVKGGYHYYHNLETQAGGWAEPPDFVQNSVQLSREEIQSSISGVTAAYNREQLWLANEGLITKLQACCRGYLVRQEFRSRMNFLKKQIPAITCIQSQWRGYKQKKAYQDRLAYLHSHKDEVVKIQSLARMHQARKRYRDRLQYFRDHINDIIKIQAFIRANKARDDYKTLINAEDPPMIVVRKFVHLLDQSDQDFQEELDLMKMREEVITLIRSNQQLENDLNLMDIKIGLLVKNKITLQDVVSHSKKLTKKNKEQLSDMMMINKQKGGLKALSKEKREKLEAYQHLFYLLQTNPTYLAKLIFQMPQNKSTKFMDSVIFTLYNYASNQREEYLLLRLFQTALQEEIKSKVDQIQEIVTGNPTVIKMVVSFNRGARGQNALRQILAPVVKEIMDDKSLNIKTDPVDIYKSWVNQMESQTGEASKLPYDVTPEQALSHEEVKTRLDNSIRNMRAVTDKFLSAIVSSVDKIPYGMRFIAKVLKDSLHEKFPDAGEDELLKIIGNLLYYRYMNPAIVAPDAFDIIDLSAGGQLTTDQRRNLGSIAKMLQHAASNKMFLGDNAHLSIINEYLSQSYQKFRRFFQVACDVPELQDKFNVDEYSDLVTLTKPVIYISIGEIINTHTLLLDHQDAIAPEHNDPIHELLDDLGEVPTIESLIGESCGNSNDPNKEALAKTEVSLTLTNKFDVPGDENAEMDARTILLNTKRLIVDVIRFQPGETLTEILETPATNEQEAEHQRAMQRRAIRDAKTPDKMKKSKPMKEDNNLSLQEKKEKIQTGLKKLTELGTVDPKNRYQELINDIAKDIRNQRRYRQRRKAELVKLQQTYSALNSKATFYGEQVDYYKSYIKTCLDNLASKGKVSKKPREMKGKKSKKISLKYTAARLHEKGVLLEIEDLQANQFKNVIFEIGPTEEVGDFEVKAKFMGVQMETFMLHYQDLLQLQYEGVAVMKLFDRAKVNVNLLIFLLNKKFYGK

Biological target: IQ motif-containing GTPase activating protein 1 (IQGAP1) (mouse (endogenous in primary murine Sertoli cells)) (UniProt Q9JKF1)
Experiment: co-IP; Protein G magnetic beads with anti-IQGAP1 or anti-PAFAH1B1 antibody; protein extracts of murine Sertoli cells added overnight at 4 °C; washed with 1x PBST; immunoblot; also in cells treated with Pafah1b1 siRNA or miR-181c/d mimics (complex reduced)

B1: Platelet-activating factor acetylhydrolase 1b regulatory subunit 1 (PAFAH1B1) (protein, UniProt P63005-1 1-410)
chain: MVLSQRQRDELNRAIADYLRSNGYEEAYSVFKKEAELDMNEELDKKYAGLLEKKWTSVIRLQKKVMELESKLNEAKEEFTSGGPLGQKRDPKEWIPRPPEKYALSGHRSPVTRVIFHPVFSVMVSASEDATIKVWDYETGDFERTLKGHTDSVQDISFDHSGKLLASCSADMTIKLWDFQGFECIRTMHGHDHNVSSVAIMPNGDHIVSASRDKTIKMWEVQTGYCVKTFTGHREWVRMVRPNQDGTLIASCSNDQTVRVWVVATKECKAELREHEHVVECISWAPESSYSSISEATGSETKKSGKPGPFLLSGSRDKTIKMWDVSTGMCLMTLVGHDNWVRGVLFHSGGKFILSCADDKTLRVWDYKNKRCMKTLNAHEHFVTSLDFHKTAPYVVTGSVDQTVKVWECR
binding: binds
